Assay results taken from PMC9604255, “Discovery of Simple Diacylhydrazine-Functionalized Cinnamic Acid Derivatives as Potential Microtubule Stabilizers” (International Journal of Molecular Sciences, 2022).

Tested on: PC-3 cancer cells
Assay: MTT antiproliferative assay, PC-3
Assay type: cell-based
Conditions: Homo sapiens, 48 h, read-out: IC50 PC-3
Text: An A549 (human non-small cell lung cancer cell line) cell line was purchased from the Shanghai Cell Bank of the Chinese Academy of Sciences; PC-3 (human prostate cancer cell line) cell line was donated by the Key Laboratory of Natural Product Chemistry of the Chinese Academy of Sciences of Guizhou Province; HepG2 (human liver cancer cell line) and NRK 52E (normal rat kidney cell line) cell line was donated by Guizhou Medical University; all cell lines were kept by the laboratory.
The antiproliferative activity of target compounds against A549, PC-3, HepG2, and NRK-52E were determined by MTT assay, as described in previous articles. The assay was recorded at 490 nm by an Infinite® M200 PRO multimode microplate (Tecan, Männedorf, Switzerland).

Question: `COc1cc2c(c(OC)c1OC)-c1ccc(OC)c(=O)cc1[C@@H](NC(C)=O)CC2` [Colchicine, reference compound] was tested. Which IC50 did it give?
Answer: 2.12 ± 0.29 µM
